Measurements as given in the M2OR odorant receptor database.
The entries are a selection whose mix differs from that of the whole data set. The calls were merged from several studies; some rest on single wells. The list shows a part of the results. This is one part of the list.

Key:
Conditions in all cases: stereoisomer not certain
OR2W1 = tested on: T1, OR2W1
T1 sequence (whole entry): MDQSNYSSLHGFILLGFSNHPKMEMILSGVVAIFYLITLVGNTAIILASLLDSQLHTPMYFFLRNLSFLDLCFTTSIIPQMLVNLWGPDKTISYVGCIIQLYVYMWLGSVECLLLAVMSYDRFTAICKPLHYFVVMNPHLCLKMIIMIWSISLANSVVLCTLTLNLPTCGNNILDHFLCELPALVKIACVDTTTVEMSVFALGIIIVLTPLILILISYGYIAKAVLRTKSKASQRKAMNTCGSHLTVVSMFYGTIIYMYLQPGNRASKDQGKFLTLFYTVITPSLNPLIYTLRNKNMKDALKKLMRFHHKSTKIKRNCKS
How it was run: (§1)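 Assay methods differ from source to source, frequently being transient luciferase assays in mammalian cell lines. For each receptor–molecule pair, the label responsive (active) applies when the original authors judged the measured signal statistically different from baseline, and non-responsive (inactive) applies otherwise.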

OR2W3 = tested on: T2, OR2W3
T2 sequence (whole entry): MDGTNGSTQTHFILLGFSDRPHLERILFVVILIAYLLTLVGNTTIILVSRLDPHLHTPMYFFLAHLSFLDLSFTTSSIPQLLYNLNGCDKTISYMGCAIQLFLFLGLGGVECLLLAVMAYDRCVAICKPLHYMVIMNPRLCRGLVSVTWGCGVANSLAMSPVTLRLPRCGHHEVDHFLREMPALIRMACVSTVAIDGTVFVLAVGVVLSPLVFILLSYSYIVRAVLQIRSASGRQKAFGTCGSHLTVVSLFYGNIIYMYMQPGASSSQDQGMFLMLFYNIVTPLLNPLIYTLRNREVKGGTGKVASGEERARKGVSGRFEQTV
How it was run: as §1

OR2W5P (Homo sapiens) = target: T3, OR2W5P (Homo sapiens) (UniProt A6NFC9)
T3 sequence (whole entry): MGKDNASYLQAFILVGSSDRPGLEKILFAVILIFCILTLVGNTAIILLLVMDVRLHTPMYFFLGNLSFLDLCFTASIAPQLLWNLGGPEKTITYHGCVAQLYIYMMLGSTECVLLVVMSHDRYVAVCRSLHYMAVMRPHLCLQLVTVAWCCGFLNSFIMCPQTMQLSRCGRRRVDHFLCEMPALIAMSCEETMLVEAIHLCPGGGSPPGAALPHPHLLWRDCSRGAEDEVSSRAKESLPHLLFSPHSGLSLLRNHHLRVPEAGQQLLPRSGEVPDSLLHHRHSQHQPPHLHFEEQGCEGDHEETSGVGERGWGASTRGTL
How it was run: as §1

OR2Y1 = tested on: T4, OR2Y1
T4 sequence (whole entry): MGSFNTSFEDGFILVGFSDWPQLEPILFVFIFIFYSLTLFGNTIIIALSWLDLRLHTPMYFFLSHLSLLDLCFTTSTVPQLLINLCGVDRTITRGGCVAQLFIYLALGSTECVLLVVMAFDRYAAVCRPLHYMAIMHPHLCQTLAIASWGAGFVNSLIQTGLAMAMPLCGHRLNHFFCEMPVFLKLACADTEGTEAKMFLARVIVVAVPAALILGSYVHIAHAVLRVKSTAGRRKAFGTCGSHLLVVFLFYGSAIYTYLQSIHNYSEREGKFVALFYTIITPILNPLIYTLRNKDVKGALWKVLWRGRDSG
How it was run: as §1

OR2Z1 (Homo sapiens) = target: T5, OR2Z1 (Homo sapiens) (UniProt Q8NG97)
T5 sequence (whole entry): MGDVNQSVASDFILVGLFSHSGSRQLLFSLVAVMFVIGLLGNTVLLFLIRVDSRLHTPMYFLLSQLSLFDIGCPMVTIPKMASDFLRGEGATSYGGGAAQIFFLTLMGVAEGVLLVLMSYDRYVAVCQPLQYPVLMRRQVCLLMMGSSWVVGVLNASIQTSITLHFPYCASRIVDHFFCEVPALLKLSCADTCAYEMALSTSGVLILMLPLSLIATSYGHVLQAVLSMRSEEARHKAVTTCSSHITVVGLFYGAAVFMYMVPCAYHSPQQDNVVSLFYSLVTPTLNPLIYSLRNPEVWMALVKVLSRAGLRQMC
How it was run: as §1

OR3A1 (Homo sapiens) = target: T6, OR3A1 (Homo sapiens) (UniProt P47881)
T6 sequence (whole entry): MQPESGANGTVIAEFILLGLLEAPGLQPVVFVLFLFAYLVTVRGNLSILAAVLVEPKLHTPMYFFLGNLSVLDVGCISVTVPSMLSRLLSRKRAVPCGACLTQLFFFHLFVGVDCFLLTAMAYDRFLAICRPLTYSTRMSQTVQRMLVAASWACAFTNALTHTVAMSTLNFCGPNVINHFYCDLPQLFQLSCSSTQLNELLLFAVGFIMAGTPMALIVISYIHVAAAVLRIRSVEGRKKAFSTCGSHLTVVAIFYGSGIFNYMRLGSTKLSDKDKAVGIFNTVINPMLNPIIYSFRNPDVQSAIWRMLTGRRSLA
How it was run: as §1

OR3A2 (Homo sapiens) = target: T7, OR3A2 (Homo sapiens) (UniProt P47893)
T7 sequence (whole entry): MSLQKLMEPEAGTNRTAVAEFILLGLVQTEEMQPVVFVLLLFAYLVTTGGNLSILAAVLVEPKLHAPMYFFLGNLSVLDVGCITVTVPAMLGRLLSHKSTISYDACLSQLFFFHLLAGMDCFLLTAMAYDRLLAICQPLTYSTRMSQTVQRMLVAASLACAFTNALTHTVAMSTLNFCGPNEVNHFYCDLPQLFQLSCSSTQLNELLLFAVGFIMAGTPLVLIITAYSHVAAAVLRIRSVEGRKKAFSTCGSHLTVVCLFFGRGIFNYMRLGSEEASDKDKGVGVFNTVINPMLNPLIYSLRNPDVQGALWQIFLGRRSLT
How it was run: as §1

OR3A3 = tested on: T8, OR3A3
T8 sequence (whole entry): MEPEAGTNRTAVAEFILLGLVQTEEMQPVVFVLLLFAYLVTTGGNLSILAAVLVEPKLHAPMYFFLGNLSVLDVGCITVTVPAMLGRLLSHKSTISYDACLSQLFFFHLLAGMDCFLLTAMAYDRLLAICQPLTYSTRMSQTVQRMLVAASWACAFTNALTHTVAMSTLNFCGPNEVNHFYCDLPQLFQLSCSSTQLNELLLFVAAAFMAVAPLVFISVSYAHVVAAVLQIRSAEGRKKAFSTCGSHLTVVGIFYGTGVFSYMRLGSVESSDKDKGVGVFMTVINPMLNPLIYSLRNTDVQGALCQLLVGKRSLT
How it was run: as §1

OR3A4 = tested on: T9, OR3A4
T9 sequence (whole entry): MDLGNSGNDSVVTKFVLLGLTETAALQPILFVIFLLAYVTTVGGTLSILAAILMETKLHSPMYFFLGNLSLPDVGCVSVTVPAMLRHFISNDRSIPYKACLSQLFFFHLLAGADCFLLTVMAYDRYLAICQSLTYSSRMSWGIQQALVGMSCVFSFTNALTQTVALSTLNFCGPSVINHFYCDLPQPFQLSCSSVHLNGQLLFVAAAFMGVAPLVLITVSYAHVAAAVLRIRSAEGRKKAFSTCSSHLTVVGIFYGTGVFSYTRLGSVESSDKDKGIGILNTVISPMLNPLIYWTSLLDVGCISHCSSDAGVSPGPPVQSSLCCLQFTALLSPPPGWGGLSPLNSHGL
How it was run: as §1

OR4A16 (Homo sapiens) = target: T10, OR4A16 (Homo sapiens) (UniProt Q8NH70)
T10 sequence (whole entry): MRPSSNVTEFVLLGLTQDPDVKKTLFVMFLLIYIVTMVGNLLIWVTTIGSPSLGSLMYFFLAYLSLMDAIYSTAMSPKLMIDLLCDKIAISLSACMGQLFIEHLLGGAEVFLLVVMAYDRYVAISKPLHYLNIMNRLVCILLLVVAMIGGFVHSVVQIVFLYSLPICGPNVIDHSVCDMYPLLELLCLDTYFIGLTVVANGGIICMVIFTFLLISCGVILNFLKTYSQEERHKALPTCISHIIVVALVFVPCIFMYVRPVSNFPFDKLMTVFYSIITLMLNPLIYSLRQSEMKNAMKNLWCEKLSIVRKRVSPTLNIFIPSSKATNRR
How it was run: as §1

OR4A4P (Homo sapiens) = target: T11, OR4A4P (Homo sapiens) (UniProt Q8NGN8)
T11 sequence (whole entry): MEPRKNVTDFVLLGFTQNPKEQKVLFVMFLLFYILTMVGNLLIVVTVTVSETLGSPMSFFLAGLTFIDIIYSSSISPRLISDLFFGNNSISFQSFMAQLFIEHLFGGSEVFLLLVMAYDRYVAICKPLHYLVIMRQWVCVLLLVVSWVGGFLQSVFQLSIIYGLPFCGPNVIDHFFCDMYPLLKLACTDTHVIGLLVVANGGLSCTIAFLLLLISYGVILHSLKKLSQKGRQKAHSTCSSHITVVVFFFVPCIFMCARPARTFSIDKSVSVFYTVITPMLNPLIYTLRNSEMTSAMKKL
How it was run: as §1

OR4A5 (Homo sapiens) = target: T12, OR4A5 (Homo sapiens) (UniProt Q8NH83)
T12 sequence (whole entry): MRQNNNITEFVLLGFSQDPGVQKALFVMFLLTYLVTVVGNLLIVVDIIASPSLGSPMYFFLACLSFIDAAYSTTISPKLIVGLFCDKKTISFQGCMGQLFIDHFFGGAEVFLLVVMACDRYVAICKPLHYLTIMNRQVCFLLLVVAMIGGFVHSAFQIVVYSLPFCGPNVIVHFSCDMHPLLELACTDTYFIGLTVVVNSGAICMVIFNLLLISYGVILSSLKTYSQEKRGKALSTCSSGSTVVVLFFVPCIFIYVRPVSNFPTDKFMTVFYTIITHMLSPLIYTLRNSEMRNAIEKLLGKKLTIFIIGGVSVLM
How it was run: as §1

OR4A5 = tested on: T13, OR4A5
T13 sequence (whole entry): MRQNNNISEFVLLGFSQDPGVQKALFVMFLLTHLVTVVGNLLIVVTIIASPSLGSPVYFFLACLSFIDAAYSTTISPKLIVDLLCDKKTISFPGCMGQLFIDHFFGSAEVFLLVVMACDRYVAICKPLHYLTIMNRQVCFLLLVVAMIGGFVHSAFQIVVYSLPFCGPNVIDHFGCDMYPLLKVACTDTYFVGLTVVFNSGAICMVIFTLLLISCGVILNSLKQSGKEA
How it was run: as §1

OR4B1 (Homo sapiens) = target: T14, OR4B1 (Homo sapiens) (UniProt Q8NGF8)
T14 sequence (whole entry): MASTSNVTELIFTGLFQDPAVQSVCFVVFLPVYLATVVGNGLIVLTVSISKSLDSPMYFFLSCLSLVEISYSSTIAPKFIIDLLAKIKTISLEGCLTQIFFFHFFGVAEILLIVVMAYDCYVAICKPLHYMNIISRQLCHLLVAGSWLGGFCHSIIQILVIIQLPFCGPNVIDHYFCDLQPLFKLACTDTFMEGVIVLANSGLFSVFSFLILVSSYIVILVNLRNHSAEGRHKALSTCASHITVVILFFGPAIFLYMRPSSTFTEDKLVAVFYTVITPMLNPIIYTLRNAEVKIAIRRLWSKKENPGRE
How it was run: as §1

OR4C11 (Homo sapiens) = target: T15, OR4C11 (Homo sapiens) (UniProt Q6IEV9)
T15 sequence (whole entry): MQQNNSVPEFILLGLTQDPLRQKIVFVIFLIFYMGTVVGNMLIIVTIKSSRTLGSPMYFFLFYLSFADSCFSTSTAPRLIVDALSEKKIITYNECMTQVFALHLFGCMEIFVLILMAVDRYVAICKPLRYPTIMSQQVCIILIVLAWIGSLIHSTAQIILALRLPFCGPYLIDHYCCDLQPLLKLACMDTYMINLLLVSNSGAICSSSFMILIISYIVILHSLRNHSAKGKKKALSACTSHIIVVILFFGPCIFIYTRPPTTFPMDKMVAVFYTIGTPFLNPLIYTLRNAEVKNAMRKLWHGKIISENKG
How it was run: as §1

OR2W3 (Homo sapiens) = target: T16, OR2W3 (Homo sapiens) (UniProt Q7Z3T1)
T16 sequence (whole entry): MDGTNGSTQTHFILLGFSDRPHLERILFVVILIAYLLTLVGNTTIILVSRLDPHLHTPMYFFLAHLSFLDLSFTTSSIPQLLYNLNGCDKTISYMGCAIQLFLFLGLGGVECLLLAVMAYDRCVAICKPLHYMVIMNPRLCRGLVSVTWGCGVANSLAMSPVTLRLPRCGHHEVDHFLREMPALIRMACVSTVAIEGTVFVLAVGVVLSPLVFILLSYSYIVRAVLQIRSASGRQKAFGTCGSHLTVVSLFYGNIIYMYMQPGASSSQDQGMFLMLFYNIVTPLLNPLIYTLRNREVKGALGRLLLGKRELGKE
How it was run: as §1

Measured: odorant receptor agonist call

O=C1CCCCCCCCCCCCCCO1
inactive: OR2W1 | OR2W3 | OR2W5P (Homo sapiens) | OR2Y1 | OR2Z1 (Homo sapiens) | OR3A1 (Homo sapiens) | OR3A2 (Homo sapiens) | OR3A3 | OR3A4 | OR4A16 (Homo sapiens) | OR4A4P (Homo sapiens) | OR4A5 (Homo sapiens) | OR4A5 | OR4B1 (Homo sapiens) | OR4C11 (Homo sapiens)

CCCCO
inactive: OR2W1 | OR2W3 (Homo sapiens) | OR2W3 | OR2W5P (Homo sapiens) | OR2Y1 | OR2Z1 (Homo sapiens) | OR3A1 (Homo sapiens) | OR3A2 (Homo sapiens) | OR3A3 | OR3A4 | OR4A16 (Homo sapiens) | OR4A4P (Homo sapiens) | OR4A5 (Homo sapiens) | OR4A5 | OR4B1 (Homo sapiens) | OR4C11 (Homo sapiens)
